PubChem BioAssay AID2551 (National Center for Advancing Translational Sciences (NCATS), 2010)
Several values for one entry are separate records, joined by “and”; a condition that tells them apart may be missing. Equal values may be shown once. Out of some 310,000 compounds screened, about 17,000 (5.5%) were called active. This list was built around the results that the source calls inconclusive (neither active nor inactive); the mix of calls is not that of the screen. The call rests on the fitted dose curve; in most records, active means well fitted inhibition curve with a large enough effect; inconclusive means small, poorly fitted or top-dose-only effect, or effect the other way; inactive means no such curve, though single readings can be large or run the other way. Where the call is inconclusive, the potency comes from a doubtful curve fit.

Amino acid sequences for entries named in this document (tags omitted). A change or cut given only in a name is not applied to a line headed by its entry.
UniProt P51450: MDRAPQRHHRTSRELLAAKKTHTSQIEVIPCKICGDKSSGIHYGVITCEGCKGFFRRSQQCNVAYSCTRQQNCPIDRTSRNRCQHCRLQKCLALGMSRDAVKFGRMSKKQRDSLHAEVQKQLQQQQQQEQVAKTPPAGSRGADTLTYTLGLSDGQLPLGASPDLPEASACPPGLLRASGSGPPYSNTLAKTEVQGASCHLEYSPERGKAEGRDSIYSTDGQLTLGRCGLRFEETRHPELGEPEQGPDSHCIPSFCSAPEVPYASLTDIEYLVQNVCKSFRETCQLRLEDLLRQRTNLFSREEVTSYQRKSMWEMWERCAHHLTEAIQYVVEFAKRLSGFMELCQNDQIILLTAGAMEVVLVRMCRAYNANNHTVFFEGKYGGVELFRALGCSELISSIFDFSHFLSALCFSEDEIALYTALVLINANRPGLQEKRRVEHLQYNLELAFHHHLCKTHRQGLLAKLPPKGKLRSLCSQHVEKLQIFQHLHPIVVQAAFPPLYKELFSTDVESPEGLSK

target: Nuclear receptor ROR-gamma (Mus musculus) (UniProt P51450); test: qHTS for inhibitors of ROR gamma transcriptional activity; settings: Drosophila S2 Gal4-RORgamma UAS-luciferase reporter, 20 h; series mostly up to 53.6 µM; further: nearly all actives have a fitted effect of over 60% in size
Procedure, shortened: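 Drosophila S2 cells stably expressing Gal4-DBD/mouse RORγ fusion under metallothionein promoter plus UAS-luciferase; compound 1 h, then 700 uM CuSO4 induction for 20 h at ambient temperature; inhibition read as reduced luminescence.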
Potency means the concentration at half of the fitted maximal effect.

Potency, inactive:
O=C(O)c1ccc(/C=N/n2cc(-c3ccccc3)[nH]c2=S)cc1
Cc1oc(/C=N/NC(=O)CC2(C)OCCO2)cc1Br
COc1ccc(-n2c(=O)c(C)nc3cnc(Nc4cccc(OC)c4)nc32)cc1
Cc1ccc(Cn2nc(C)c(NC(=O)c3cc(C)no3)c2C)cc1
CCCCCc1cc(=O)oc2c(C(CCN(CC)CC)c3ccc(N(C)C)cc3)c(OC)cc(OC)c12 (stereo not given)
CN(C)c1ccc(CNC(=O)c2cc(S(=O)(=O)N3CCOCC3)cn2C)cc1
COC(=O)c1ccc(CSc2nc3ccccc3c(=O)n2N)cc1
CCN(CC)CCN(Cc1cc2cc3c(cc2[nH]c1=O)OCO3)C(=S)NCC(C)C
CC(NC(=O)OCc1ccccc1)C(=O)Oc1cc2oc(=O)cc(-c3ccccc3)c2cc1Cl (stereo not given)
CCOc1cc(NC(=S)NCCCN2CCOCC2)c(OCC)cc1NC(=O)c1cccc(C)c1
O=c1[nH]c(N/N=C/c2cc3c(cc2[N+](=O)[O-])OCO3)nc2ccccc12
O=C(Cc1ccccc1)Nc1nc(-c2ccc(F)c(F)c2)cs1
COCCOc1cc(NC(=O)c2sccc2Oc2ccc([N+](=O)[O-])cc2F)c(Cl)cc1Cl
CC(=O)Nc1ccc(N(C(=O)CNC(=O)c2cccs2)C(C(=O)NC(C)(C)C)c2ccccc2)cc1 (stereo not given)
O=C(CSc1ccc(Cl)cc1)Nc1ccc(N2CCN(c3ccccc3)CC2)c(F)c1
CCN1CCN(C(CNS(=O)(=O)c2cccs2)c2cccnc2)CC1 (stereo not given)
NCCC[C@@H](CC(=O)N[C@@H]1CCNC[C@H]1C(=O)N[C@H](CC(=O)N[C@@H](CCC(=O)O)CC(=O)O)Cc1c[nH]c2ccccc12)NC(=O)C[C@H](CO)NC(=O)[C@@H]1CCCC[C@H]1N
Cc1cccc(-c2nc3ccccc3c(=O)n2NC(=O)Cc2ccc(Cl)cc2)c1
Cc1ccc(N(CC(=O)Nc2ccccc2C(=O)NCc2ccco2)S(=O)(=O)c2ccccc2)cc1C

For convenience, 4 of the compounds above:
Potency, inactive:
CC(=O)Nc1ccc(N(C(=O)CNC(=O)c2cccs2)C(C(=O)NC(C)(C)C)c2ccccc2)cc1 (stereo not given)
O=C(CSc1ccc(Cl)cc1)Nc1ccc(N2CCN(c3ccccc3)CC2)c(F)c1
CCN1CCN(C(CNS(=O)(=O)c2cccs2)c2cccnc2)CC1 (stereo not given)
NCCC[C@@H](CC(=O)N[C@@H]1CCNC[C@H]1C(=O)N[C@H](CC(=O)N[C@@H](CCC(=O)O)CC(=O)O)Cc1c[nH]c2ccccc12)NC(=O)C[C@H](CO)NC(=O)[C@@H]1CCCC[C@H]1N

Following part.

Potency, inconclusive:
O=C(O)c1ccc2oc(SCC(=O)N3CCCCC3)nc2c1 17.8 µM [inhibitor, single point]
CCOC(=O)N1CCN(S(=O)(=O)c2ccc(F)c(C(=O)Nc3cccc(Cl)c3C)c2)CC1 12.6 µM [activator, partial curve]
C=CCOc1ccc(/C(O)=C2/C(=O)C(=O)N(CCCN3CCOCC3)C2c2ccc(OC)cc2)cc1 (stereo not given) 0.1 µM [activator, full curve, poor fit]
COc1cccc(CSc2nc3ccccc3[nH]2)c1 35.5 µM [activator, partial curve]
Fc1cccc(Cn2ccc(-c3ccc4c(c3)OCO4)n2)c1 12.6 µM [activator, single point]
Oc1cc2cc(CCN3CCN(c4nsc5ccccc45)CC3)c(Cl)cc2[nH]1 15.8 µM [activator, partial curve]
O=C(O)CCc1ccc(-c2ccc(Br)cc2)o1 22.4 µM [inhibitor, single point]
CC(=O)Nc1ccc(Sc2ncccc2C(=O)Nc2ccc(OC(F)(F)F)cc2)cn1 1.12 µM [inhibitor, single point]
COc1ccc(-c2noc(CN3CCC(Cc4ccccc4)CC3)n2)cc1 5.62 µM [inhibitor, single point]
COc1ccc(C(=O)COC(=O)C(CCSC)NS(=O)(=O)c2ccc(Cl)cc2)cc1 (stereo not given) 35.5 µM [activator, single point]
Cc1oc(-c2ccccc2F)nc1CS(=O)(=O)CC(=O)N1CCc2ccccc21 11.2 µM [activator, single point]
O=C(Cn1cnc2c(nnn2Cc2ccccc2)c1=O)c1ccccc1 35.5 µM [activator, single point]
CC(=O)c1c(C)[nH]c(C(=O)Nc2ccc(Cl)c(S(=O)(=O)N3CCOCC3)c2)c1C 2.82 µM [activator, full curve, poor fit]
CCOCCn1c(COc2ccc(C)cc2)nc2ccccc21 5.62 µM [inhibitor, partial curve]
CCOc1ccccc1-c1nc(-c2cc3ccc(C)cc3[nH]c2=O)no1 6.31 µM [activator, single point]
O=C(NCCc1ccccn1)c1cc(-c2ccccc2Cl)nc2ccccc12 10 µM [activator, partial curve, poor fit]
CC1(C(=O)CSc2nc3ccccc3s2)CCC(=O)O1 (stereo not given) 17.8 µM [inhibitor, single point]
CCc1nc2ccccc2n1Cc1ccc(F)cc1 35.5 µM [inhibitor, single point]
CCCCCCC(=O)N(O)C1CC(=O)N(c2ccc(Cl)cc2)C1=O (stereo not given) 35.5 µM [inhibitor, single point]
COc1cc(C(CCN2CCCC(C)C2)c2c(OC)cc(OC)c3c(-c4ccccc4)cc(=O)oc23)cc(OC)c1OC (stereo not given) 35.5 µM [inhibitor, single point] and 20 µM [inhibitor, single point]
CN1C/C(=C\c2ccc(N3CCOCC3)cc2)C(=O)/C(=C/c2ccc(N3CCOCC3)cc2)C1 12.6 µM [activator, partial curve]
O=C(NCCc1csc(-c2cccnc2)n1)c1ccc(Cl)cc1 28.2 µM [activator, single point]
C/C(=N\NC(=O)c1ccccc1F)c1ccc2c(c1)Nc1ccccc1S2 3.55 µM [inhibitor, full curve, poor fit]
Cc1ccc2nc(NC(=O)C(NS(=O)(=O)c3cccc4nsnc34)C(C)C)sc2c1 (stereo not given) 22.4 µM [inhibitor, single point]
O=C(COc1cccc2ccccc12)N/N=C/c1ccccc1OCc1ccc(C(=O)O)cc1 35.5 µM [activator, single point]
Cc1ccc(P(=O)(OCCN2CCOCC2)C(C)(C)C)o1 (stereo not given) 35.5 µM [inhibitor, single point]
Oc1ccc(CCNc2ncnc3ccc(Cl)cc23)cc1 12.6 µM [inhibitor, single point]
O=C(/C=C/c1cccc([N+](=O)[O-])c1)NCCSc1ccccc1 11.2 µM [activator, partial curve]
CCCN1CCC(=O)N([C@H](CSc2ccc(OC)cc2)Cc2ccccc2)CC1 14.1 µM [activator, partial curve, poor fit]
CC(C)(C)c1ccc(OC(=O)Nc2ccc(O)c(C(=O)O)c2)cc1 0.251 µM [inhibitor, full curve]
Cc1[nH]nc2c1C(c1cccnc1)N(c1ccc(Br)cc1)C2=O (stereo not given) 2.82 µM [inhibitor, partial curve]
COc1c(OC(C)=O)ccc(/C=C/c2ccc3cccc(OCc4ccccc4)c3n2)c1[N+](=O)[O-] 35.5 µM [activator, single point]
COc1ccccc1-n1c(CNc2ccc(F)cc2)nnc1SCC(=O)Nc1cc(C)on1 20 µM [activator, single point]
CCCCCCCCCCNC(=O)C(=O)Nc1ccccn1 14.1 µM [activator, single point]
COCCn1c(SCC#N)nnc1-c1ccc(OC)cc1 0.178 µM [inhibitor, full curve, poor fit]
COc1ccc(C(=O)NC(=S)Nc2ccc(S(=O)(=O)Nc3cc(C)on3)cc2)cc1OC 12.6 µM [activator, partial curve]
Cc1ccccc1NC(=O)c1ccc(F)c(S(=O)(=O)N2CCN(c3ccccn3)CC2)c1 11.2 µM [activator, single point]
COc1ccc(C(=O)c2no[n+]([O-])c2C(=O)c2ccc(OC)cc2)cc1 35.5 µM [inhibitor, single point]

Three entries out of the list, ordered by length of the SMILES, descending:
Potency, inconclusive:
CCOC(=O)N1CCN(S(=O)(=O)c2ccc(F)c(C(=O)Nc3cccc(Cl)c3C)c2)CC1 12.6 µM [activator, partial curve]
C/C(=N\NC(=O)c1ccccc1F)c1ccc2c(c1)Nc1ccccc1S2 3.55 µM [inhibitor, full curve, poor fit]
CC1(C(=O)CSc2nc3ccccc3s2)CCC(=O)O1 (stereo not given) 17.8 µM [inhibitor, single point]

Following part.

Potency, active:
COc1ccc(-c2nnc(SCCC(=O)O)n2-c2ccccc2)cc1 12.6 µM
COc1ccc(OCCCC(=O)Nc2nc(-c3ccccn3)cs2)cc1 10 µM
Cc1cccc(NC(=S)NCc2cccs2)c1C 3.55 µM
Cc1ccc(NC(=S)NCCN(C2CCCCC2)C2CCCC2)cc1C 5.01 µM
COc1ccc(-c2n[nH]c(=S)n2-c2ccc3c(c2)OCCO3)cc1 2.82 µM
CN(C)Cc1ccccc1Sc1cccc2ccccc12 10 µM
Cc1ccc2nc(-c3ccccc3)c(CN3CCN(c4ccccc4F)CC3)n2c1 8.91 µM
CC(C)c1nnc(NC(=O)c2nc(S(=O)(=O)Cc3ccc(F)cc3)ncc2Cl)s1 11.2 µM
CCCCCCCCCCn1c2c(c(=N)c3c1CCC3)CCC2 8.91 µM
CCOC(=O)Cc1csc(NC(=S)NC(=O)c2ccc(C)cc2)n1 5.01 µM
O=C(Nc1ccccn1)c1cc2ccccc2o1 3.98 µM
CC1CN(C(=S)NC(=O)c2ccc([N+](=O)[O-])cc2)CC(C)O1 (stereo not given) 0.447 µM
COc1ccc(/C=C2/SC(=S)N(CCCC(=O)N3CCN(C)CC3)C2=O)cc1 1.41 µM
